According to article PMC5342447:
Results are given in words; binding and its absence hold for the method and conditions named. For part of these data: In cells and extracts the contact can be indirect. Some binding calls cover weakened binding; strength is not graded here.

Protein sequences, listed by entry. Tags and fused reporters are not part of them. Lines headed by an entry give the natural chain unless they say otherwise; changes in a name come on top. Chains listed by the source or under a name are the forms on record and can include a tag or linker. Residues count along the entry.
GST-Dom 3 of IP3R1 (a.a. 923-1581) (P11881, residues 923-1581): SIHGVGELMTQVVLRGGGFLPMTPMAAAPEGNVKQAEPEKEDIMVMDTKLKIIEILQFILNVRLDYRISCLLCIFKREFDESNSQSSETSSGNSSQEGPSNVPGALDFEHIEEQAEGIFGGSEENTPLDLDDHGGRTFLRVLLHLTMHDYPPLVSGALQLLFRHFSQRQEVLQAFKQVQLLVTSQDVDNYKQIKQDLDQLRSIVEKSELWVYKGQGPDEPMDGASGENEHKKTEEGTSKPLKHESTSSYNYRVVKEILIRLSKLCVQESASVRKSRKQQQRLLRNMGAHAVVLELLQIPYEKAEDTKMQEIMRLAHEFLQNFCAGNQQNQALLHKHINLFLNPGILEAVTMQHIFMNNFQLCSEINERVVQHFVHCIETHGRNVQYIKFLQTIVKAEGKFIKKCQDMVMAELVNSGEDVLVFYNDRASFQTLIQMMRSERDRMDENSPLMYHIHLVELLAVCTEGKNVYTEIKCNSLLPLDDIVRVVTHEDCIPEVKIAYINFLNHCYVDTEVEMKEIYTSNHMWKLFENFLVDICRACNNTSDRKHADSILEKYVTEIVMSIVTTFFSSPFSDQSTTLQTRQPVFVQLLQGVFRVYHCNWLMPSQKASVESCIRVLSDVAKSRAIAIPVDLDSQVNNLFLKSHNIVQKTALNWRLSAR
GST-C-term Dom of IP3R1 (a.a. 2512-2749) (P11881, residues 2512-2749): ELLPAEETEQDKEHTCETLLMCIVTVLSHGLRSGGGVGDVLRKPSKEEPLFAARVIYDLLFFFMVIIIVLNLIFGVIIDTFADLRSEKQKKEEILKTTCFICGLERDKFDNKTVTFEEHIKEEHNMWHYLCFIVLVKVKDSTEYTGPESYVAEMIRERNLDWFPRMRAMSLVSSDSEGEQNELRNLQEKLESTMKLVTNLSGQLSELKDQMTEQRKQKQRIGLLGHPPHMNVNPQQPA
UniProt P10415: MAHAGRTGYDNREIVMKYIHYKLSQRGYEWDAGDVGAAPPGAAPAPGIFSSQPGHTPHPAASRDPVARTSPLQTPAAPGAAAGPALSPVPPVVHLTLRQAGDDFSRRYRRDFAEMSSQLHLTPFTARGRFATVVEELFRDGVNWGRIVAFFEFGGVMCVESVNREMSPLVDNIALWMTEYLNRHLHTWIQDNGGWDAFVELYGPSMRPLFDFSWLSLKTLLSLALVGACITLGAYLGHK
3xFLAG-Bcl-2^GR/AA (P10415, form named): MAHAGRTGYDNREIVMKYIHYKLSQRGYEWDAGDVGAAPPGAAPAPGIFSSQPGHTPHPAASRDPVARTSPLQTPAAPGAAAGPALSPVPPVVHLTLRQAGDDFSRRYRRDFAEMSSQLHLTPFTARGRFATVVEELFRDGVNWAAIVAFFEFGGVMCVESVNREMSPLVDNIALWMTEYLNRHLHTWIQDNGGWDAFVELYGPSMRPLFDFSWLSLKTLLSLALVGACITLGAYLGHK

Assays:
[1] = target: GST-C-term Dom of IP3R1 (a.a. 2512-2749) (UniProt P11881); assay: pull-down; purified GST-Dom 3 or GST-C-term Dom (0.5 μM) as bait with 100 μg COS-1 lysate, 4°C, 25 mM Tris-HCl pH 7.5, 150 mM NaCl, 1% Triton X-100; glutathione-Sepharose 4B; anti-FLAG blot; wild type also with 3 μM ABT-199 or DMSO in the last hour; only the target purified
[2] = target: GST-Dom 3 of IP3R1 (a.a. 923-1581) (UniProt P11881); assay: as above
[3] = target: T1, biotin-TMD-Bcl-2 peptide; assay: pull-down; biotinylated peptide (30 μg) with 0.35 μM purified GST-C-term Dom over night at 4°C, 50 mM Tris-HCl, 200 mM NaCl, 0.1% NP-40, 1% BSA, pH 7.0; peptide held on neutravidin agarose; anti-GST blot; both purified
T1 sequence (peptide, biotin tag (position not stated)): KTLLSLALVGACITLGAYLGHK

Row | Substance | binding [1] | binding [2] | binding [3]
1 | 3xFLAG-Bcl-2^GR/AA (from UniProt P10415 1-239) | binds | binds | 
2 | 3xFLAG-Bcl-2^ΔC (from UniProt P10415 1-213) (domain or fragment) |  | binds | 
3 | 3xFLAG-Bcl-2^wt (Bcl-2α) (from UniProt P10415 1-239) | binds | binds | 
4 | GST-C-term Dom of IP3R1 (a.a. 2512-2749) (from UniProt P11881 2512-2749) (domain or fragment) |  |  | binds
